Data from PubChem BioAssay AID2685 (National Center for Advancing Translational Sciences (NCATS), 2010).
The list shows a part of the results. These are further read-outs of the screen, such as a control signal, another cell line or another target. No call is given for them. Most of these compounds were active or inconclusive in the main read-out, so they are no random draw. Potencies come from curve fits of mixed quality, noted in brackets.

Test: qHTS Assay for Lipid Storage Modulators in Drosophila S3 Cells;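 for cell number change: cells counted by Cell Tracker Red CMTPX staining in the red channel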
Settings: BODIPY lipid droplet fluorescence, 18-24 h; for cell number change: measured here: cell count max response, cells fed with added oleic acid
Outline: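 Laser-scanning cytometry quantifies lipid droplet accumulation (500–530 nm total intensity; droplet/cell object ratio) in oleic acid-fed (400 uM added) Drosophila S3 cells treated with a concentration series. 20 uM Triacsin C defined 100% inhibition.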

[1] = measured here: lipid fluorescence (Fed channel) AC50, cells fed with added oleic acid
[2] = measured here: cell number channel AC50, cells fed with added oleic acid

Compound	cell number change	AC50 [1]	AC50 [2]
CC(c1ccccc1)N(C)C(=O)CSc1nnc(C2CC2)n1C1CC1 (stereo unspecified)	-47.3%	–	–
Cc1cc(C)cc(-n2c(C)c3c(C)nnc(C)c3c2C)c1	13.1%	0.731 µM [rising, full curve]	–
CCOC(=O)[C@H]1[C@H]2COc3ccc(Br)cc3[C@@H]2N2C(=O)CN(CC3CCCO3)C(=O)[C@@]12C (stereo partly specified)	17.2%	–	–
O=C(NC1CCCCC1)C(c1ccc2ncccc2c1)N(Cc1ccccc1)C(=O)c1ccc2c(c1)OCCO2 (stereo unspecified)	–	–	0.58 µM [rising, full curve]
CSc1nc2c(c(=O)[nH]1)C(c1ccc(F)cc1)CC(=O)N2 (stereo unspecified)	36.2%	–	3.26 µM [rising, single point]
O=C(NCCc1ccccc1)C1CCN(C(=O)NCc2ccccc2)CC1	-40.2%	11.6 µM [falling, partial curve]	6.51 µM [falling, partial curve, poor fit]
COCCn1c(C)cc(C(=O)COC(=O)c2ccc(NC(=O)CC#N)cc2)c1C	–	4.61 µM [falling, partial curve]	–
Cc1ccc(Nc2nc(N)nc(COC(=O)c3ccc(Br)o3)n2)cc1	6.83%	–	–
COc1ccccc1N1CCN(C(=O)C2CC(=O)N(c3ccccc3)C2)CC1 (stereo unspecified)	-15.4%	–	–
CCOc1ccc(CCNC(=O)COn2nnc3ccc(S(=O)(=O)N4CCOCC4)cc32)cc1OCC	-3.93%	–	–
CC(C)C[C@@H](CSc1ccccc1)N1CCN(CCc2ccccc2)CCC1=O	10.4%	–	–
COc1cc(OC)cc(C(=O)NC2CCN(Cc3nnnn3Cc3cccs3)CC2)c1	47.8%	11.6 µM [rising, partial curve]	9.2 µM [rising, partial curve, poor fit]
COc1cccc(NC(=O)CN(C)C(=O)c2cccc(S(=O)(=O)N3c4ccccc4CC3C)c2)c1 (stereo unspecified)	203%	–	23.1 µM [rising, single point]
O=C(NCCCN1CCCCC1)c1ccc2c(c1)NC(=O)c1ccccc1S2	12.2%	29.1 µM [rising, single point]	–
O=C(NCCCn1ccnc1)c1cc2nc(-c3ccc(Br)cc3)cc(C(F)(F)F)n2n1	-27.4%	5.8 µM [falling, partial curve]	–
COc1cccc(CNC(=O)Cn2c(=O)n(CCC(=O)N3CCCCC3)c(=O)c3sccc32)c1	–	29.1 µM [falling, single point]	–
CCOC(=O)c1nn(-c2cc(C(=O)OC)cc(C(=O)OC)c2)cc1O	32.7%	–	13 µM [rising, partial curve, poor fit]

Compound	cell number change	AC50 [1]	AC50 [2]
CCOc1cc(N2CCOCC2)c(OCC)cc1NC(=O)c1ccc(-n2ccnc2)c([N+](=O)[O-])c1	16.2%	–	–
Cc1cc(N2C(=O)Cc3ccccc3C2=O)ccc1C(C)C	-19.1%	–	–
O=C(N/N=C/c1ccc([N+](=O)[O-])s1)C(O)c1ccccc1 (stereo unspecified)	-34.6%	0.00461 µM [falling, full curve, poor fit]	11.6 µM [falling, partial curve, poor fit]
COc1ccc(NS(=O)(=O)c2ccc(N/N=C(\C)c3ccncc3)c([N+](=O)[O-])c2)cc1	–	6.51 µM [falling, partial curve, poor fit]	–
CC(Oc1ccc(Cl)cc1)C(=O)NCCCn1ccnc1 (stereo unspecified)	–	0.00517 µM [rising, full curve, poor fit]	6.51 µM [rising, single point]
O=[N+]([O-])c1ccc2c(c1)nnn2-c1ccccc1	-7.61%	–	–
O=S(=O)(c1ccc(N2CCOCC2)c(Cl)c1)N1CCOCC1	-8.82%	0.231 µM [rising, full curve]	–
O=C1CN(/N=C/c2ccc([N+](=O)[O-])o2)C(=O)N1	-37.9%	8.2 µM [falling, partial curve, poor fit]	0.461 µM [falling, full curve]
Cc1ccc(CNC(=O)c2oc3ccc(S(=O)(=O)N4CCOCC4)cc3c2C)cc1	-0.959%	–	–
CCCCc1sc(-c2c(C#N)c(N)nc3c2CCCCC3)cc1[N+](=O)[O-]	-22.6%	–	–
Cn1nccc1C(=O)NC1CCCc2c1cnn2-c1ccc(C(C)(C)C)cc1 (stereo unspecified)	-15.3%	–	–
O=C1CN(C(=O)COC(=O)C23CC4CC(CC(O)(C4)C2)C3)c2ccccc2N1	-151%	0.13 µM [falling, full curve, poor fit]	25.9 µM [falling, partial curve]
COc1ccc(S(=O)(=O)N2CCCC2)cc1NC(=O)c1ccccc1	18.8%	–	–
CC(=O)Nc1nonc1NC(=O)c1ccc(F)cc1	-33.1%	0.651 µM [falling, full curve]	0.0651 µM [falling, full curve]
COc1ccc(C(c2nnnn2C2CCCC2)N2CCN(C3CCCC3)CC2)cc1OC (stereo unspecified)	-68.1%	–	29.1 µM [falling, single point]
COc1ccc(N=Cc2sc(O)c3ccccc23)cc1	-91%	29.1 µM [falling, single point]	23.1 µM [falling, single point]

A second format for some results above.
CSc1nc2c(c(=O)[nH]1)C(c1ccc(F)cc1)CC(=O)N2 (stereo unspecified)
  cell number change: 36.2%; AC50 [2]: 3.26 µM [rising, single point]
O=C1CN(/N=C/c2ccc([N+](=O)[O-])o2)C(=O)N1
  cell number change: -37.9%; AC50 [1]: 8.2 µM [falling, partial curve, poor fit]; AC50 [2]: 0.461 µM [falling, full curve]
